# Reference: the supplement of paper PMC12819154, “High-throughput peptide-centric local stability assay extends protein–ligand identification to membrane proteins, tissues and bacteria” (Nature Structural & Molecular Biology, 2025)
# Amino acid sequences for entries named in this document (tags omitted). A change or cut given only in a name is not applied to a line headed by its entry.
# UniProt Q5VZE5: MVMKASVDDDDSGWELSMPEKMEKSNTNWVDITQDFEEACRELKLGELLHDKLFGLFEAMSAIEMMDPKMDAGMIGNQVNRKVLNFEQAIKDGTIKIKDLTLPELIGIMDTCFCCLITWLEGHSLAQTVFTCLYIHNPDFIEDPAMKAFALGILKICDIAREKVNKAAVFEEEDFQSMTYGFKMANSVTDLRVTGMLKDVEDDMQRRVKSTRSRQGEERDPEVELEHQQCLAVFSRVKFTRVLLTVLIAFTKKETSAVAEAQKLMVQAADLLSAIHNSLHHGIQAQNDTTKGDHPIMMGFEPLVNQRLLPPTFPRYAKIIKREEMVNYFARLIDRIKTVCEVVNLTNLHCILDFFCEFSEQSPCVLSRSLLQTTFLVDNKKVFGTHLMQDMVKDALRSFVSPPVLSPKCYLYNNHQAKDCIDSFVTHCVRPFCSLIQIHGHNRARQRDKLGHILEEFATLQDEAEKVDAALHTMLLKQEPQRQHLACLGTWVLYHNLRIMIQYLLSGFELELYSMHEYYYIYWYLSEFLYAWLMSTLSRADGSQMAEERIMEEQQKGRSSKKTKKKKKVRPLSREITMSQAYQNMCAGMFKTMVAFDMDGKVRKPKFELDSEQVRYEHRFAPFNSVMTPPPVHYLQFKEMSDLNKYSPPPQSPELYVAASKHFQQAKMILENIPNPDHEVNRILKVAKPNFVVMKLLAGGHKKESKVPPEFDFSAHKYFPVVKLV
# UniProt Q68CQ4: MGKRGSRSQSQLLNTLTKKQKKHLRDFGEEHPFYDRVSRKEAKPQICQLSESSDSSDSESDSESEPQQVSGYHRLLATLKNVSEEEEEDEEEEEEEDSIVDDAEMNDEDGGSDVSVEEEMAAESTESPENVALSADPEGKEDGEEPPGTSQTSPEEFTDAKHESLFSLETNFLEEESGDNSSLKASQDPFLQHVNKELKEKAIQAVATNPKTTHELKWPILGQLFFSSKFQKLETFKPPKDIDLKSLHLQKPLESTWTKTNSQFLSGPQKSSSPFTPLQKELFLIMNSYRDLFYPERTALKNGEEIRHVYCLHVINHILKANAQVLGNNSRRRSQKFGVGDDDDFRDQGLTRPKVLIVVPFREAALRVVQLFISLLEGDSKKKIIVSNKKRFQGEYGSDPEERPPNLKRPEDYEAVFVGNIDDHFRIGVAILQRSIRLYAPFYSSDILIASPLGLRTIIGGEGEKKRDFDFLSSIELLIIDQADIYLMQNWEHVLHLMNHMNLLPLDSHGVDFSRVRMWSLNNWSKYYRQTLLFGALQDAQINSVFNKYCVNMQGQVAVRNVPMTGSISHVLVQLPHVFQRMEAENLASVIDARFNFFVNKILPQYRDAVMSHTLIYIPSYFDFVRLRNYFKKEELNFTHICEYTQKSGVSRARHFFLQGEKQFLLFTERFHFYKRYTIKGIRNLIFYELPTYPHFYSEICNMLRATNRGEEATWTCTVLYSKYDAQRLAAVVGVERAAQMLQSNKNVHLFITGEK
# UniProt Q6S8J3, whole entry: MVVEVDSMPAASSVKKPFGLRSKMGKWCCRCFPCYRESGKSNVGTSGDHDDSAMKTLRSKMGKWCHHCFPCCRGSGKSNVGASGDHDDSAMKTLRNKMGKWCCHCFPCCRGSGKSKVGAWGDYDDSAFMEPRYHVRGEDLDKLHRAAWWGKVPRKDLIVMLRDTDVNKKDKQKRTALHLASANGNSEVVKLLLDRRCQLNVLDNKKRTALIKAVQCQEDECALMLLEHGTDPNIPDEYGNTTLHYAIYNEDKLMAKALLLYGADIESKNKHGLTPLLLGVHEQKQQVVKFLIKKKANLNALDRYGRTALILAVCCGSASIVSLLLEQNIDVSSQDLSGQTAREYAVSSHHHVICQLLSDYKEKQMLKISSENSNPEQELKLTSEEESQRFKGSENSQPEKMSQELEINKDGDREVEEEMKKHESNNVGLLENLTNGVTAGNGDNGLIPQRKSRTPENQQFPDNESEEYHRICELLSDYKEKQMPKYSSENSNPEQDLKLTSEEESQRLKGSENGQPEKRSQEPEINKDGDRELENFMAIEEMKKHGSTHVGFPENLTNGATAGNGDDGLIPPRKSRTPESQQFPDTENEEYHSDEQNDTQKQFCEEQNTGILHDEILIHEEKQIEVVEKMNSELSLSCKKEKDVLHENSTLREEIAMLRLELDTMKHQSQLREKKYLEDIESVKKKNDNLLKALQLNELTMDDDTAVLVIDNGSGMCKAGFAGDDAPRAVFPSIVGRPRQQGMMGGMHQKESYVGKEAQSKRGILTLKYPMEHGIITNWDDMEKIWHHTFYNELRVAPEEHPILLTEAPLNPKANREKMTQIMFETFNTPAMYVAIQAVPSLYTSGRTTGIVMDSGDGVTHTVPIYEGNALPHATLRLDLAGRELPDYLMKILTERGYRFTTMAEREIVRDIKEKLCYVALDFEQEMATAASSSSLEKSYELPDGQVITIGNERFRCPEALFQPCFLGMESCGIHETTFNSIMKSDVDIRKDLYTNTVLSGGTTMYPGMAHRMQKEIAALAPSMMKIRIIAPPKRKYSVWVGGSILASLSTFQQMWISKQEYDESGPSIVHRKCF
# UniProt Q6XQN6: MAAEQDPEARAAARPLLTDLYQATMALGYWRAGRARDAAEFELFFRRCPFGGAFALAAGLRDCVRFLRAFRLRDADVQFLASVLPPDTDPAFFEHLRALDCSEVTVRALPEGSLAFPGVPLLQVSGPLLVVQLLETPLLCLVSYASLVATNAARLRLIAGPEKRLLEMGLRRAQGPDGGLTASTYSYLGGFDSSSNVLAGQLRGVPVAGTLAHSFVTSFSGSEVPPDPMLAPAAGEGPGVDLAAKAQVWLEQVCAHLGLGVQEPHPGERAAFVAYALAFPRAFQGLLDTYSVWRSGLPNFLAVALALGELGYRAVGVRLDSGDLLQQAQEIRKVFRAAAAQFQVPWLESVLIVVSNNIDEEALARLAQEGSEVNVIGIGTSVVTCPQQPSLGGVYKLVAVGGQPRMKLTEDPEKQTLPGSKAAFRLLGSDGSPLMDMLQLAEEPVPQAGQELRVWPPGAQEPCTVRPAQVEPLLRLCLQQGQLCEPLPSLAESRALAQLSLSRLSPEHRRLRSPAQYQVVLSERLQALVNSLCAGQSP
# UniProt Q6TDP4, whole entry: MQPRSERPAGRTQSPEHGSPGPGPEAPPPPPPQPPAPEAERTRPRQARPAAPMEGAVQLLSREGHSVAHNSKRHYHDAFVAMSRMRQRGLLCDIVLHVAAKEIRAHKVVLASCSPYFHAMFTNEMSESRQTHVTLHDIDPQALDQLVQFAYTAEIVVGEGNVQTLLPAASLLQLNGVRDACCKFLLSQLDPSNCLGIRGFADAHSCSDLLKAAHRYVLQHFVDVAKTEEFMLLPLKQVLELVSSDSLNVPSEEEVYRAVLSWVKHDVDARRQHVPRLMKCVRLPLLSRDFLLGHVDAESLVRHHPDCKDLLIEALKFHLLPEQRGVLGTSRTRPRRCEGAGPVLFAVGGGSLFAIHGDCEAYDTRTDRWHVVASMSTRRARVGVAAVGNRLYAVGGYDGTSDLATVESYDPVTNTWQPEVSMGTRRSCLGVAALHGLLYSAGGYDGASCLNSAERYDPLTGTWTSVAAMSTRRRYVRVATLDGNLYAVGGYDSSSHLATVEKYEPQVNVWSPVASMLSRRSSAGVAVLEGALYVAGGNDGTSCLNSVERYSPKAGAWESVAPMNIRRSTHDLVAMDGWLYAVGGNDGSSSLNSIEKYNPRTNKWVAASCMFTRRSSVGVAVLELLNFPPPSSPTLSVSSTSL
# UniProt Q6NVV7: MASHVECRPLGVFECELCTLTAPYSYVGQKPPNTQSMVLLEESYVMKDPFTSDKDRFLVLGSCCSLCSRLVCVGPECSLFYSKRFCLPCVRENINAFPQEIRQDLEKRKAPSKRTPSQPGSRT
# UniProt Q6S8J7: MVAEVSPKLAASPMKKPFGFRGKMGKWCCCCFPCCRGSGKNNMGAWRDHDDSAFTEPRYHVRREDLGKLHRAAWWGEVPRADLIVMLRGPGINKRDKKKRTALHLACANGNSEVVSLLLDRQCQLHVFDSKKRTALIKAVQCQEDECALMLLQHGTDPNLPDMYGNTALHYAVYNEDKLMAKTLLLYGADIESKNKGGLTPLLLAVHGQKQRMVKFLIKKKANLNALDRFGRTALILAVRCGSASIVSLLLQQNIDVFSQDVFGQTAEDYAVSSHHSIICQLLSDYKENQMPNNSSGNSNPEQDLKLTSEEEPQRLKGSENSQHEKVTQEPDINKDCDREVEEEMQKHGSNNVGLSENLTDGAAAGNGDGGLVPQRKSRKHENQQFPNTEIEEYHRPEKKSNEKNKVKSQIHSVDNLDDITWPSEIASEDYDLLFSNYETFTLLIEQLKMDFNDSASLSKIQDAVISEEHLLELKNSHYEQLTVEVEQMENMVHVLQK
# UniProt Q6NW29: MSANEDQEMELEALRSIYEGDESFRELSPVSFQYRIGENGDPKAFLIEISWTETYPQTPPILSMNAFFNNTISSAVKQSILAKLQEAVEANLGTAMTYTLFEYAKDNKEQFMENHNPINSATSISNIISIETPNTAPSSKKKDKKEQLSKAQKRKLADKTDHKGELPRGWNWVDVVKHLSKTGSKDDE
# UniProt Q6IQ21: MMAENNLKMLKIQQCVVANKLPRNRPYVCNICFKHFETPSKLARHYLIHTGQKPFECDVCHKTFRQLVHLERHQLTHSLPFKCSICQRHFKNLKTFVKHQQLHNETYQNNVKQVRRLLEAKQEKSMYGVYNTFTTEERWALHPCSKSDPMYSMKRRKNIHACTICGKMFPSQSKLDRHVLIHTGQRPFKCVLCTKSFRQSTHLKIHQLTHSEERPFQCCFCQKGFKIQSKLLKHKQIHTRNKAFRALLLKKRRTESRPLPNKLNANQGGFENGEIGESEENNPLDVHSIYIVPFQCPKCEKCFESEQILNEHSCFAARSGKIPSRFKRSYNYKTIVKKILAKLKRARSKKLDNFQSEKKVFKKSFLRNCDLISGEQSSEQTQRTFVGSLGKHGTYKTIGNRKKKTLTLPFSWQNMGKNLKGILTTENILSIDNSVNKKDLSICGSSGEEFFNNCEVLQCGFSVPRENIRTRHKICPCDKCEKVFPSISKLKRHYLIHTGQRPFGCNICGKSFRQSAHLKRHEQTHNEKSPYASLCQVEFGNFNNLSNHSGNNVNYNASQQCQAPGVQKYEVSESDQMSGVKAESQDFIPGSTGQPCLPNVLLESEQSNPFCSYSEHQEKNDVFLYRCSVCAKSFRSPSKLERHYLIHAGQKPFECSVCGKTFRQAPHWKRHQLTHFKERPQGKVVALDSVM
# UniProt Q68EA5: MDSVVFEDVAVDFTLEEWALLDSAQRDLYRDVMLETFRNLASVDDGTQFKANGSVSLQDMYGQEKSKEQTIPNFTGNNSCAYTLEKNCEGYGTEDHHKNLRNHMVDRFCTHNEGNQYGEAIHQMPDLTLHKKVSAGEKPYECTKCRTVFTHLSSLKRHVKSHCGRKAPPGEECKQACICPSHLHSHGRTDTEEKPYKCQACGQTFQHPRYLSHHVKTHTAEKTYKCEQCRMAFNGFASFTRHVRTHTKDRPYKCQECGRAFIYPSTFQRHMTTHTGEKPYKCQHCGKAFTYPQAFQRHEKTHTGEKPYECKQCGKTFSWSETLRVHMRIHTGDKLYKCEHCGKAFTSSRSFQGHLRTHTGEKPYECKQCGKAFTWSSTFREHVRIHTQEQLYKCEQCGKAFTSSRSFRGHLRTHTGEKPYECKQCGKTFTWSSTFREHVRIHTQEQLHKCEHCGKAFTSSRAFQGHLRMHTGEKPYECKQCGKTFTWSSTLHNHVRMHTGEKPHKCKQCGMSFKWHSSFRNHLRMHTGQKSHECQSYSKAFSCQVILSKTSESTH
# UniProt Q6P3R8: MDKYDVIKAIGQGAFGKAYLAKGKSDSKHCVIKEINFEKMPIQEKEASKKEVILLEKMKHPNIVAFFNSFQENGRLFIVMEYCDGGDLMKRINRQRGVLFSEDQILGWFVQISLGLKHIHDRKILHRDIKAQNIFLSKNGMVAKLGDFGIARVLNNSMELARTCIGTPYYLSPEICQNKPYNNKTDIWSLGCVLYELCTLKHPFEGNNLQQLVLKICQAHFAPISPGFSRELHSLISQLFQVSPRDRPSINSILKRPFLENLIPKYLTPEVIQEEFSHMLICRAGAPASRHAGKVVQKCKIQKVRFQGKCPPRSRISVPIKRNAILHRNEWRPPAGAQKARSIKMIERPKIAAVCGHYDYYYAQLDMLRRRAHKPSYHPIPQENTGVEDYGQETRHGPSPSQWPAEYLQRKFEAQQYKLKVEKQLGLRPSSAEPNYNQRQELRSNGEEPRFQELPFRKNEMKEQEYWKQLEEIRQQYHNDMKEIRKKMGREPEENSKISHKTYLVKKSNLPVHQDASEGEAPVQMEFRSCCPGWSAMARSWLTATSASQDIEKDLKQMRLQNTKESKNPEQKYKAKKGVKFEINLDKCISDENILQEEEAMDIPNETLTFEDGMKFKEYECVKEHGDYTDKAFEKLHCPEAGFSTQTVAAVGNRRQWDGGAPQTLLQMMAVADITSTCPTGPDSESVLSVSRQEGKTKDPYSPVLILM
# The list shows a part of the results. Small differences around the control level are noise.
# Compound: CN[C@@H]1C[C@H]2O[C@@](C)([C@@H]1OC)n1c3ccccc3c3c4c(c5c6ccccc6n2c5c31)C(=O)NC4 [staurosporine]
# Assay: log2 fold change of tryptic peptide abundance, ligand vs vehicle (limited proteolysis) (log2 ratio); higher = more trypsin-susceptible (destabilized)
# Settings: ligand concentration: 20 uM; sample: K562 cleared lysate; digestion: 4 min, 22 C (HT-PELSA RT4min, Orbitrap Astral)
row,Target,log2 fold change
1,"UniProt Q5VZE5 (peptide sequence: VLLTVLIAFTKK, peptide start residue: 242)",0.574
2,"UniProt Q6PGQ7 (peptide sequence: DVIVPSPWTDHEGK, peptide start residue: 107)",0.222
3,"UniProt Q63HN8 (peptide sequence: EACNQDALQEAGTFR, peptide start residue: 3607)",0.757
4,"UniProt Q6NXR4 (peptide sequence: KVVNYIR, peptide start residue: 488)",0.431
5,"PDE12 (peptide sequence: LSLSFALADGSHK, peptide start residue: 49) (UniProt Q6L8Q7)",-0.0645
6,"UniProt Q68CQ4 (peptide sequence: ASQDPFLQHVNKELK, peptide start residue: 185)",0.386
7,"UniProt Q6S8J3 (peptide sequence: VAPEEHPILLTEAPLNPK, peptide start residue: 796)",0.364
8,"KLHDC10 (peptide sequence: SAAQGWDR, peptide start residue: 2) (UniProt Q6PID8)",-0.0802
9,"ADAL (peptide sequence: GGPLVAK, peptide start residue: 151) (UniProt Q6DHV7)",-0.291
10,"UniProt Q6XQN6 (peptide sequence: ARDAAEFELFFR, peptide start residue: 35)",-0.52
11,"UniProt Q6PII3 (peptide sequence: EFSFGYWSKR, peptide start residue: 369)",-0.484
12,"MTHFD1L (peptide sequence: GSMTMSIQWK, peptide start residue: 244) (UniProt Q6UB35)",-0.361
13,"KLHL17 (peptide sequence: DFLLGHVDAESLVR, peptide start residue: 289) (UniProt Q6TDP4)",0.382
14,"UniProt Q5XG87 (peptide sequence: GSHGHTQGGGYSSVGSGGVRPPVGNR, peptide start residue: 719)",-0.437
15,"UniProt Q6NVV7 (peptide sequence: LVCVGPECSLFYSKR, peptide start residue: 70)",-0.192
16,"UniProt Q6S8J7 (peptide sequence: ANLNALDR, peptide start residue: 296)",0.0127
17,"PWWP2B (peptide sequence: KPEEPENGEPTAAATAR, peptide start residue: 214) (UniProt Q6NUJ5)",-0.481
18,"UniProt Q6NW34 (peptide sequence: VFKEESSEFDVR, peptide start residue: 302)",-0.333
19,"UniProt Q6NW29 (peptide sequence: KLADKTDHK, peptide start residue: 155)",-0.348
20,"UniProt Q6IE81 (peptide sequence: VLEEFEQR, peptide start residue: 174)",0.119
21,"UniProt Q6AW86 (peptide sequence: GEEPWVPSGK, peptide start residue: 56)",0.455
22,"MRPL54 (peptide sequence: TLEELDPESR, peptide start residue: 106) (UniProt Q6P161)",-0.0927
23,"TBC1D9B (peptide sequence: AEDIEQMR, peptide start residue: 779) (UniProt Q66K14)",-0.334
24,"CC2D1A (peptide sequence: LAEDCKR, peptide start residue: 612) (UniProt Q6P1N0)",0.678
25,"ZNF770 (peptide sequence: IQQCVVANKLPR, peptide start residue: 12) (UniProt Q6IQ21)",-0.159
26,"UniProt Q68EA5 (peptide sequence: TFTWSSTLHNHVR, peptide start residue: 484)",0.43
27,"FAM117B (peptide sequence: DSHGQAAPCMR, peptide start residue: 236) (UniProt Q6P1L5)",-0.923
28,"ARID2 (peptide sequence: AIVNHPSAALMALRR, peptide start residue: 1732) (UniProt Q68CP9)",0.416
29,"NEK5 (peptide sequence: SCCPGWSAMAR, peptide start residue: 529) (UniProt Q6P3R8)",-0.416
